# Out of some 330,000 compounds screened, about 20 (0.006%) were called active. The shares of active, inactive and inconclusive entries below differ from those in the screen. Calls come from the whole dose curve; as a rule, active = well fitted inhibition curve with a large enough effect; inconclusive = small, poorly fitted or top-dose-only effect, or effect the other way; inactive = flat fitted curve, though single readings scatter. Where the call is inconclusive, the potency comes from a doubtful curve fit.
# By UniProt entry, the sequences of proteins in these tests, tags left out. Where a name states a change or a piece, a line headed by the entry shows the natural chain unless it says otherwise.
# UniProt O00167: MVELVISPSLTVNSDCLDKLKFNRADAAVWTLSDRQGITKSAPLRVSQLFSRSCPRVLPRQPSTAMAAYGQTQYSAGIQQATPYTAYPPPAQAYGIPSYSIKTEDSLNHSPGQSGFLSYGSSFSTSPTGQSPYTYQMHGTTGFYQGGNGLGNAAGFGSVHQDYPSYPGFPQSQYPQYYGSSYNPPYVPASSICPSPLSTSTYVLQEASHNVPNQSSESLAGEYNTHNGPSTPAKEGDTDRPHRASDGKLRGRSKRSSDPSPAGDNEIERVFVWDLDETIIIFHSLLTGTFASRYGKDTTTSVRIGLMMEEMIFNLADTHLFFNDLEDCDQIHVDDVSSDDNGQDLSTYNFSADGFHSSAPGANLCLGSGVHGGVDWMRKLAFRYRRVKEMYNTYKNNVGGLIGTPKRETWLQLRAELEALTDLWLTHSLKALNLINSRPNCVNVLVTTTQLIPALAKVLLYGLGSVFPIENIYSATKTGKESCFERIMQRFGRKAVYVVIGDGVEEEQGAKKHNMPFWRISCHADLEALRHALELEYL
# Molecular target: Protein phosphatase EYA2 (Homo sapiens) (UniProt O00167)
# Test: qHTS Assay for Inhibitors of the Phosphatase Activity of Eya2
# Settings: recombinant Eya2, OMFP fluorescence dephosphorylation (OMFP is methylfluorescein phosphate)
# Procedure, shortened: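 Eya2 (0.2 uM) preincubated 10 min at ambient with compound, then OMFP substrate added at 50 uM; 10 min reaction in 50 mM HEPES pH 7.5, 50 mM NaCl, 5 uM MgCl2, 0.05% BSA, 1 mM DTT. Fluorescence read at Ex 485/Em 525 nm.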
# Potency is the fitted concentration of half-maximal effect.
row,SMILES,Potency
1,CC(=O)Nc1cccc(OCCCNS(=O)(=O)c2ccc(F)cc2)c1,"inconclusive: 89.1 µM [inhibitor, single point]"
2,CC1CN(CC(=O)Nc2ccc(Br)cn2)CC(C)O1 (stereo not given),"inconclusive: 100 µM [inhibitor, partial curve]"
3,CCCCc1ccc(NS(=O)(=O)c2c(C)n(C)c(=O)n(C)c2=O)cc1,"inconclusive: 22.4 µM [inhibitor, single point]"
4,O=C(Nc1ccncc1)c1c(Cl)cccc1Cl,"inconclusive: 100 µM [inhibitor, single point]"
5,COc1ccc(C(=O)NCC(=O)OCC(=O)c2ccc3c(c2)NC(=O)CO3)cc1,"inconclusive: 14.1 µM [inhibitor, single point]"
6,COC(=O)c1ccccc1NC(=O)NCc1ccccn1,inactive
7,O=C(NCCO)c1ccc2nc(-c3ccco3)c(-c3ccco3)nc2c1,inactive
8,O=C(CCN1C(=O)c2ccccc2S1(=O)=O)Nc1ccc(C(=O)O)cc1,"inconclusive: 31.6 µM [inhibitor, single point]"
9,Cn1c(=O)c(/C(N)=N/OC(=O)c2ccccc2)cn(-c2ccccc2)c1=O,"inconclusive: 22.4 µM [inhibitor, single point]"
10,CCCN1C(=O)S/C(=C\c2ccc(N3CCOCC3)o2)C1=O,inactive
11,O=C(Cc1n[nH]c(=O)[nH]c1=O)N/N=C/CCc1ccccc1,"inconclusive: 158 µM [inhibitor, single point]"
12,CCN(Cc1ccc2c(c1)OCCO2)C(=O)CN1C(=O)NC2(CCc3ccccc32)C1=O (stereo not given),"inconclusive: 39.8 µM [inhibitor, partial curve]"
13,O=C(Nc1ccccc1O)c1ccc(NS(=O)(=O)c2cccc3cccnc23)cc1,inactive
14,CC1=NN(C(N)=S)C(=O)C1N=Nc1ccc(F)cc1 (stereo not given),inactive
15,NC(=O)c1nn(-c2ccccc2)nc1NC(=O)CN1CCCC1,"inconclusive: 22.4 µM [inhibitor, single point]"
16,Cc1cccc(CCNC(=O)c2cccc(NC3=NC4CS(=O)(=O)CC4S3)c2)c1 (stereo not given),"inconclusive: 25.1 µM [inhibitor, single point]"
17,O=C(CSc1ccc(-c2ccco2)nn1)Nc1ccc(F)cc1,inactive
18,CCCCn1nc2cc(C(=O)NCc3cc(C(F)(F)F)cc(C(F)(F)F)c3)ccc2c1OCC,"inconclusive: 79.4 µM [inhibitor, single point]"
19,COc1ccc(C(C(=O)NC2CCCCC2)N2CCC3(CC2)OCCO3)cc1 (stereo not given),"inconclusive: 25.1 µM [inhibitor, single point]"
20,Cn1nnnc1-c1cc(Br)ccc1NC(=O)c1ccccc1,"inconclusive: 112 µM [inhibitor, single point]"
21,COc1cccc(/C=N/NC(=O)c2ccncc2)c1OC(=O)c1ccc(Br)cc1,inactive
22,COC(=O)C1=C(C)NC2=C(C(=O)CCC2)C1c1cccs1 (stereo not given),"inconclusive: 14.1 µM [inhibitor, single point]"
23,O=C(CSc1ccc(-c2cccnc2)nn1)N1CCCc2ccccc21,inactive
24,CC1Cc2ccccc2N1C(=O)C1CCCN(S(=O)(=O)c2cccc3nsnc23)C1 (stereo not given),"inconclusive: 20 µM [inhibitor, partial curve]"

# For reference, part of the list above:
row,SMILES,Potency
10,CCCN1C(=O)S/C(=C\c2ccc(N3CCOCC3)o2)C1=O,inactive
11,O=C(Cc1n[nH]c(=O)[nH]c1=O)N/N=C/CCc1ccccc1,"inconclusive: 158 µM [inhibitor, single point]"

# Following part.

row,SMILES,Potency
1,CCOC(=O)NC(=O)/C(C#N)=C\Nc1ccc(Cl)cc1Cl,"inconclusive: 200 µM [inhibitor, partial curve]"
2,O=C(NCc1ccccc1Cl)C(=O)NCC1CCCN1S(=O)(=O)c1cccs1 (stereo not given),inactive
3,N#CC(C#N)=C1C=C2C=C(N3CCCCCC3)CCC2CC1 (stereo not given),"inconclusive: 25.1 µM [activator, partial curve]"
4,COC(=O)COc1ccc2cc(-c3ccc(OC)cc3)c(=O)oc2c1,"inconclusive: 79.4 µM [inhibitor, single point]"
5,Cc1ccc2nc(-c3ccccc3)cc(C(=O)N(C)CC(=O)Nc3ccccc3Br)c2c1,"inconclusive: 31.6 µM [inhibitor, single point]"
6,O=C(NC1CCCCC1)c1cc2cc(Br)ccc2o1,inactive
7,COc1ccc(NC(=O)Nc2c(SC)nsc2SC)cc1,"inconclusive: 100 µM [inhibitor, single point]"
8,CCOC(=O)c1cnc2c(C)cc(Cl)cc2c1N1CCN(C)CC1,"inconclusive: 22.4 µM [inhibitor, single point]"
9,CCCCCC(=O)Nc1ccc(S(=O)(=O)Nc2nccnc2OC)cc1,"inconclusive: 79.4 µM [inhibitor, single point]"
10,CCOC(=O)C1=C(C)N(c2ccc(C)cc2)C(=O)/C1=C\c1ccc(O)c(OC)c1,inactive
11,O=C(c1cccc(C(F)(F)F)c1)N1CCc2c([nH]c3ccccc23)C1C(F)(F)F (stereo not given),"inconclusive: 200 µM [inhibitor, partial curve, poor fit]"
12,Cc1ccc(/C=C/C(=O)c2ccccc(=O)c2O)c(C)c1,inactive
13,Cc1ccc(CSCC(=O)N(C)CC(=O)Nc2cccc(F)c2)cc1,"inconclusive: 63.1 µM [inhibitor, single point]"
14,NC(=O)Nc1ccc(C(=O)OCC(=O)NC2CCCCC2)cc1,"inconclusive: 20 µM [inhibitor, partial curve, poor fit]"
15,CC(=O)Nc1cccc(C(=O)OCC(=O)NC2CCCCCCC2)c1,inactive
16,Cc1cc(C)cc(OC(C)C(=O)NCCCn2ccnc2)c1 (stereo not given),inactive
17,COc1ccc(C(=O)Nc2ccccc2)cc1S(=O)(=O)NCc1ccco1,"inconclusive: 22.4 µM [inhibitor, single point]"
18,Nc1c(C(=O)c2ccc(Cl)cc2)sc2nc3c(cc12)CCC3,inactive
19,CN1CCN(c2ccc(NC(=S)NC(=O)c3cccc4c(Br)cccc34)cc2)CC1,inactive
20,CCCCS(=O)c1c(O)c2ccccc2[nH]c1=O (stereo not given),inactive
21,CC(=O)Nc1nc2ccccc2n1Cc1ccccc1,"inconclusive: 282 µM [inhibitor, partial curve, poor fit]"
22,CCCCCCCn1ccc(=N)cc1,"inconclusive: 70.8 µM [inhibitor, single point]"
23,COc1c(C)cc(C(=O)C2CCCN(C(=O)c3ccc4[nH]ccc4c3)C2)cc1C (stereo not given),"inconclusive: 126 µM [inhibitor, single point]"
24,O=C(CCOc1ccccc1F)N1CCN(c2ccccc2O)CC1,"inconclusive: 70.8 µM [inhibitor, partial curve]"

# Among those listed so far, 18 contain a halogen.
row,SMILES,Potency
1,CC(=O)Nc1cccc(OCCCNS(=O)(=O)c2ccc(F)cc2)c1,"inconclusive: 89.1 µM [inhibitor, single point]"
2,CC1CN(CC(=O)Nc2ccc(Br)cn2)CC(C)O1 (stereo not given),"inconclusive: 100 µM [inhibitor, partial curve]"
4,O=C(Nc1ccncc1)c1c(Cl)cccc1Cl,"inconclusive: 100 µM [inhibitor, single point]"
14,CC1=NN(C(N)=S)C(=O)C1N=Nc1ccc(F)cc1 (stereo not given),inactive
17,O=C(CSc1ccc(-c2ccco2)nn1)Nc1ccc(F)cc1,inactive
18,CCCCn1nc2cc(C(=O)NCc3cc(C(F)(F)F)cc(C(F)(F)F)c3)ccc2c1OCC,"inconclusive: 79.4 µM [inhibitor, single point]"
20,Cn1nnnc1-c1cc(Br)ccc1NC(=O)c1ccccc1,"inconclusive: 112 µM [inhibitor, single point]"
21,COc1cccc(/C=N/NC(=O)c2ccncc2)c1OC(=O)c1ccc(Br)cc1,inactive
1,CCOC(=O)NC(=O)/C(C#N)=C\Nc1ccc(Cl)cc1Cl,"inconclusive: 200 µM [inhibitor, partial curve]"
2,O=C(NCc1ccccc1Cl)C(=O)NCC1CCCN1S(=O)(=O)c1cccs1 (stereo not given),inactive
5,Cc1ccc2nc(-c3ccccc3)cc(C(=O)N(C)CC(=O)Nc3ccccc3Br)c2c1,"inconclusive: 31.6 µM [inhibitor, single point]"
6,O=C(NC1CCCCC1)c1cc2cc(Br)ccc2o1,inactive
8,CCOC(=O)c1cnc2c(C)cc(Cl)cc2c1N1CCN(C)CC1,"inconclusive: 22.4 µM [inhibitor, single point]"
11,O=C(c1cccc(C(F)(F)F)c1)N1CCc2c([nH]c3ccccc23)C1C(F)(F)F (stereo not given),"inconclusive: 200 µM [inhibitor, partial curve, poor fit]"
13,Cc1ccc(CSCC(=O)N(C)CC(=O)Nc2cccc(F)c2)cc1,"inconclusive: 63.1 µM [inhibitor, single point]"
18,Nc1c(C(=O)c2ccc(Cl)cc2)sc2nc3c(cc12)CCC3,inactive
19,CN1CCN(c2ccc(NC(=S)NC(=O)c3cccc4c(Br)cccc34)cc2)CC1,inactive
24,O=C(CCOc1ccccc1F)N1CCN(c2ccccc2O)CC1,"inconclusive: 70.8 µM [inhibitor, partial curve]"

# Next records:

row,SMILES,Potency
1,CCOC(=O)c1c(NC(=O)Cn2nc(C(=O)O)c3ccccc3c2=O)sc(C)c1C,"inconclusive: 100 µM [inhibitor, single point]"
2,CC(=O)N1CCC2(CC1)C/C(=N\NC(=S)Nc1ccccc1C)c1cc(O)ccc1O2,"inconclusive: 31.6 µM [activator, partial curve]"
3,O=C1Nc2ccccc2C(=O)C1(Cl)Cc1ccccc1 (stereo not given),"inconclusive: 17.8 µM [inhibitor, single point]"
4,CCOC(=O)c1c(NC(=O)COC(=O)C2CC2C)sc(C)c1C (stereo not given),"inconclusive: 20 µM [inhibitor, single point]"
5,COc1ccccc1C1c2[nH]c3ccccc3c2CCN1Cc1ccc(NC(C)=O)s1 (stereo not given),"inconclusive: 100 µM [inhibitor, single point]"
6,CCCCC(=O)N/N=C/c1ccc(Sc2cccc3cccnc23)o1,"inconclusive: 79.4 µM [inhibitor, single point]"
7,CCOc1ccc(-n2c(=O)c3c4c(sc3n(CC(=O)NCC3CCCO3)c2=O)CCCC4)cc1 (stereo not given),"inconclusive: 100 µM [inhibitor, single point]"
8,CN(C(=O)c1ccccc1-c1ccccc1C(=O)O)c1ccccc1,"inconclusive: 22.4 µM [inhibitor, single point]"
9,Cn1c(SCC(=O)N/N=C/c2ccco2)nc2ccccc21,"inconclusive: 100 µM [inhibitor, single point]"
10,CCCCN(CC)CCCNC(=O)c1cc2cc3ccc(C)cc3nc2o1,"inconclusive: 100 µM [inhibitor, single point]"
11,Cc1cccc(C)c1NC(=O)Nc1ccc(S(N)(=O)=O)cc1,"inconclusive: 89.1 µM [inhibitor, single point]"
12,Cc1ccc2nc(Nc3ccccc3)cc(C)c2c1,"inconclusive: 100000 µM [inhibitor, partial curve, poor fit]"
13,Cc1ccc(C)c2[nH]c(=O)c(CN(CCN3CCCC3)C(=O)Nc3ccc(F)cc3)cc12,inactive
14,Cc1ccc(S(=O)(=O)/N=C2/NC(=O)/C(=C\c3cc(Br)cc(Br)c3O)S2)cc1,"inconclusive: 25.1 µM [activator, partial curve]"
15,Cc1ccc(S(=O)(=O)N2CCN(Cc3ccccn3)CC2)cc1,"inconclusive: 100 µM [inhibitor, single point]"
16,COc1cc(-c2csc(CCn3nc(C)cc3C)n2)cc(OC)c1OC,"inconclusive: 56.2 µM [inhibitor, partial curve, poor fit]"
17,COc1ccc(C(=S)N2CCOCC2)cc1OC(=O)c1cc(OC)c(OC)c(OC)c1,inactive
18,CCOC(=O)N1CCN(Cc2nc3cc(NC(=O)c4cccs4)ccc3n2CC)CC1,"inconclusive: 63.1 µM [inhibitor, single point]"
19,CCNC(=S)N(Cc1c(C)noc1C)c1ccccc1,inactive
20,Cc1ccc(CNC(=O)c2cc(=O)c3ccc(C)cc3o2)cc1,inactive
21,CC(C)Nc1nc(NNc2nc(Cl)nc(NC(C)(C)C)n2)nc(NC(C)C)n1,"inconclusive: 79.4 µM [inhibitor, single point]"
22,CNc1ccc2c3c(cccc13)C(=O)N(C)C2=O,"inconclusive: 31.6 µM [activator, partial curve]"
